This passage reports AC50 results from PubChem BioAssay AID1487 (National Center for Advancing Translational Sciences (NCATS), 2009).

Some of the results follow. These are further read-outs of the screen, such as a control signal, another cell line or another target. No call is given for them. The list favours compounds with an active or inconclusive main result. Words in brackets tell the shape of the fitted curve; partial curves, single points and poor fits give uncertain potencies.

This assay is described as follows: qHTS Assay for Modulators of Lamin A Splicing. The note with it: HeLa LMNA splicing GFP/RFP minigene ratio, 48 h. The gist of the method:
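S3 HeLa stable clones carrying a lamin A-EGFP splicing minigene plus DsRed2 were seeded at 600 cells/well in Opti-MEM with 2% FBS, pin-dosed and incubated 48 h at 37°C. Acumen cytometry (488 nm) gave the GFP/RFP total-intensity ratio.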
(In general: qHTS replaces the single test concentration by a dilution series.)

[1] abbreviates: measured here: GFP splicing reporter channel.
Where [2] appears, read: measured here: RFP viability control channel.

The AC50 is the midpoint of the concentration-response curve, whichever way the signal moves. On to `Cc1nn(Cc2ccc(F)cc2)c(Cl)c1/C=N/NC(=O)c1ccccc1`, for which the AC50 under setting [1] is 20 µM [rising, single point]. On to `OCCN1CCN(C(=S)Nc2ccc(Oc3ccccc3)cc2)CC1`, for which the AC50 by setting is: under setting [1], 2.51 µM [falling, single point]; under setting [2], 2.82 µM [falling, partial curve, poor fit]. With `Cc1ccc(C(=O)COC(=O)CNC(=O)CNC(=O)c2ccc(C)cc2)cc1`, the AC50 under setting [2] was 0.00794 µM [falling, full curve]. As to `CNc1ncnc2c1ncn2[C@@H]1O[C@H](CO)[C@@H](O)[C@@H]1O`, the AC50 by setting is: under setting [1], 11.2 µM [falling, partial curve, poor fit]; under setting [2], 10 µM [falling, single point]. In the case of `CN(C)S(=O)(=O)c1ccc2c(c1)N(CC(=O)N1CCCCC1)CCS2`, the AC50 under setting [1] is 0.00316 µM [falling, full curve, poor fit]. Regarding `Cc1ccc[n+](CC(=O)c2ccc(-c3ccccc3)cc2)c1`, under setting [2], the AC50 is 0.501 µM [rising, full curve, poor fit]. Take `O=C(C1CCN(c2ccc(N3CCOCC3)nn2)CC1)N1CCc2ccccc2C1`: the concentration at half-maximal activity (AC50) is, setting by setting: under setting [1], 11.2 µM [rising, partial curve, poor fit]; under setting [2], 11.2 µM [rising, partial curve, poor fit].

Consider `CC(=O)Nc1ccc(NC(=O)C(Cc2ccccc2)N2Cc3ccccc3C2=O)cc1` (configuration not stated), for which the AC50 is, setting by setting: under setting [1], 0.562 µM [falling, partial curve]; under setting [2], 0.1 µM [falling, partial curve]. As for `CCN1C(=O)c2cccc3c(NC(=O)C4CCCCC4)ccc1c23`, under setting [2], the AC50 was 17.8 µM [rising, partial curve, poor fit]. On to `O=C(CCc1ccccc1)OCCN1CCOCC1`, for which the AC50 under setting [1] was 15.8 µM [rising, single point]. Same read-out and setting: for `NC(=O)c1nsc(C(=O)N(CC(=O)NCc2ccc3c(c2)OCO3)C2CCCC2)c1N` the value was 35.5 µM [rising, single point]. With `CCOc1ccc(S(=O)(=O)NCc2ccccc2)cc1C(N)=O`, the concentration at half-maximal activity (AC50) under setting [2] is 35.5 µM [rising, single point]. Turning to `CC(C)Oc1ccc(CNC(=S)N/N=C/c2cccnc2)cc1`, the AC50 is 14.1 µM [rising, partial curve, poor fit] under setting [1] and 14.1 µM [rising, partial curve] under setting [2]. In the case of `COC(=O)NNC(=O)COc1cc(C)c(Br)cc1C(C)C`, the half-maximal activity concentration (AC50) was 14.1 µM [rising, single point] under setting [1] and 11.2 µM [rising, single point] under setting [2]. Regarding `COCC(C)N1C(=O)Cc2c1nc(N)c1c(N)nc(N3CCN(c4ccccc4F)CC3)c(C#N)c21` (configuration not stated), the AC50 under setting [2] is 0.355 µM [falling, full curve]. In the case of `CCC1OC(=O)C[C@H](O)C(C)[C@@H](O[C@@H]2OC(C)C(O)C(N(C)C)C2O)C(CCN2CC(C)CC(C)C2)CC(C)C(=O)/C=C/C(C)=C\[C@@H]1COC1OC(C)C(O)C(OC)C1OC` (some centres not stated), the AC50 was 0.0112 µM [falling, full curve, poor fit] under setting [1] and 14.1 µM [falling, partial curve, poor fit] under setting [2]. With `CCOC(=O)CN1CC23C=CC(O2)C(C(=O)Nc2ccc(OC)cc2OC)C3C1=O` (configuration not stated), the AC50 under setting [1] was 0.0398 µM [falling, partial curve, poor fit].

`CCn1ncc(C(=O)Nc2ccccc2C)c1C`: under setting [2], the AC50 was 8.91 µM [rising, partial curve]. For `COc1ccc2c(c1)SCC(=O)N2C`, the AC50 under setting [2] was 35.5 µM [rising, single point]. Take `Cc1cccc(NCc2nnc3n2CCCCC3)c1C`: the AC50 under setting [1] is 0.447 µM [rising, full curve, poor fit]. In the case of `COc1cccc(CC2(CO)CCCN(Cc3cn[nH]c3-c3cc(C)ccc3C)C2)c1` (configuration not stated), the AC50 is 20 µM [falling, partial curve, poor fit] under setting [1] and 22.4 µM [falling, partial curve, poor fit] under setting [2]. Consider `CN(C(=O)c1ccc2c(c1)N(Cc1ccccc1F)C(=O)c1ccccc1S2)C1CCCCC1`, for which the AC50 under setting [2] is 10 µM [rising, partial curve].

With `Cc1ccccc1C(=O)NCC(c1cccnc1)N1CCc2ccccc21` (configuration not stated), the AC50 under setting [1] is 0.0141 µM [falling, full curve, poor fit]. Take `O=C(c1ccc(-c2ccc(Cl)cc2)o1)N1CCN(c2ccc([N+](=O)[O-])cc2Cl)CC1`: the AC50 under setting [2] was 5.62 µM [rising, full curve]. On the same count and under the same terms, for `COc1ccc(CC(=O)Nc2nnc(SCc3ccccc3)s2)cc1S(=O)(=O)N1CCOCC1` the value was 15.8 µM [rising, single point]. Consider `CCC(=O)N(Cc1c(C)nn(-c2ccccc2)c1Cl)c1ccc(Cl)cc1`, for which the half-maximal activity concentration (AC50) under setting [1] is 12.6 µM [rising, single point] and the half-maximal activity concentration (AC50) under setting [2] was 28.2 µM [rising, single point]. Turning to `COCCN(CCOC)C(=O)COC(=O)c1ccc(Cl)c(S(=O)(=O)N(C)c2ccccc2)c1`, under setting [2], the concentration at half-maximal activity (AC50) is 35.5 µM [rising, single point].

For `COC(=O)c1ccc(CN2CCC(CO)(Cc3cccc(OC)c3)CC2)cc1`, under setting [2], the AC50 is 0.398 µM [falling, full curve]. On the same count and under the same terms, to `COc1ccc(NC(=O)C2(c3cccs3)CCOCC2)cc1Cl` belongs 0.00708 µM [falling, full curve, poor fit]. `NC(=O)COc1ccc(NC(=O)c2ccccc2-c2ccccc2)cc1`: the half-maximal activity concentration (AC50) under setting [1] was 0.00708 µM [rising, full curve, poor fit]. `COCCn1c(-c2ccc(Cl)cc2)cnc1SCC(=O)NCCc1ccc(OC)c(OC)c1`: the half-maximal activity concentration (AC50) reads like this: under setting [1], 35.5 µM [rising, single point]; under setting [2], 35.5 µM [rising, single point]. Take `Cc1cc(Nc2sc(C(=O)c3ccc(F)cc3)c(N)c2C(=O)Nc2ccc(F)cc2)ccc1Cl`: the AC50 is, setting by setting: under setting [1], 2.82 µM [rising, partial curve]; under setting [2], 3.55 µM [rising, partial curve]. In the case of `Cc1ccc(C(=O)NC2(C(F)(F)F)NC(=O)N(c3ccc(Cl)cc3)C2=O)cc1` (configuration not stated), the concentration at half-maximal activity (AC50) under setting [1] was 28.2 µM [rising, single point] and the half-maximal activity concentration (AC50) under setting [2] was 15.8 µM [rising, partial curve].

As to `Cc1ccc(Cl)cc1N1CCN(CCCNc2ncnc3onc(-c4ccc(F)cc4)c23)CC1`, under setting [1], the AC50 is 35.5 µM [falling, single point]. As to `O=C(CNc1ccccc1)NN=C1CCCC1`, under setting [2], the AC50 is 11.2 µM [rising, partial curve].

Take `CC1CCN(c2nc(/C=C/c3ccccc3)nc3ccccc23)CC1`: the half-maximal activity concentration (AC50) under setting [2] was 14.1 µM [rising, partial curve]. Turning to `COc1ccc(CC(=O)NC2CC(=O)N(c3ccc4c(c3)OCCO4)C2)cc1` (configuration not stated), the AC50 is 0.224 µM [falling, full curve, poor fit] under setting [1] and 0.00398 µM [falling, full curve, poor fit] under setting [2].

Take `Cc1nn(C)c(C)c1S(=O)(=O)N(CC(=O)Nc1ccc2c(c1)OCO2)c1ccc(C(C)C)cc1`: under setting [2], the AC50 is 11.2 µM [rising, partial curve, poor fit]. Still for that read-out and setting: for `C=CCNC(=S)N/N=C/c1ccc(C(C)(C)C)cc1` the value was 35.5 µM [falling, single point].

Turning to `Cc1cccc(CSc2ccc3nnc(-c4cccnc4)n3n2)c1`, under setting [2], the concentration at half-maximal activity (AC50) is 5.01 µM [rising, partial curve]. For `CCOc1cc(N(CC)CC)ccc1/C=C(/C#N)c1nc2ccccc2[nH]1`, the half-maximal activity concentration (AC50) is 0.0251 µM [rising, single point] under setting [1] and 7.94 µM [falling, single point] under setting [2]. For the compound `CCOC(=O)c1c(C)oc2nc(C)nc(NCc3ccc(C)cc3)c12`, under setting [1], the half-maximal activity concentration (AC50) is 39.8 µM [falling, partial curve, poor fit]. For the compound `CCOc1ccc(Br)cc1S(=O)(=O)Nc1ccc(Cl)c(S(=O)(=O)N(C)C)c1`, the concentration at half-maximal activity (AC50) under setting [2] was 0.00355 µM [rising, full curve, poor fit]. `CC1CN(CCc2ccccc2)c2nc3c(c(=O)[nH]c(=O)n3C)n2C1` (configuration not stated): the half-maximal activity concentration (AC50) by setting is: under setting [1], 0.112 µM [rising, full curve, poor fit]; under setting [2], 0.0282 µM [rising, full curve, poor fit].

As for `COc1ccc(NC(=O)C2CCN(c3cc(-c4ccccc4)nc4ncnn34)CC2)cc1OC`, the concentration at half-maximal activity (AC50) was 5.62 µM [rising, partial curve, poor fit] under setting [1] and 10 µM [rising, partial curve, poor fit] under setting [2]. In the case of `C=CCn1c(O)c(N=NC(=S)Nc2ccccc2F)c2ccccc21`, the AC50 under setting [2] was 35.5 µM [falling, single point]. The same measure, in the same setting: for `O=C(NCCc1ccccc1F)C1CCCN1S(=O)(=O)c1ccc2ccccc2c1` (configuration not stated) the value was 12.6 µM [rising, partial curve, poor fit]; for `CCOC(=O)c1cnc2ccccc2c1Nc1ccc2c(c1)OCCO2`, 15.8 µM [rising, single point]; for `Cc1cc(C)nc(Sc2c(C)nn(-c3ccccc3)c2C)n1`, 35.5 µM [rising, single point].

With `COc1ccc(OC(=O)c2ccncc2)cc1`, the half-maximal activity concentration (AC50) under setting [1] is 10 µM [falling, single point]. Still for that read-out and setting: to `O=C(Nc1ccc(N2CCC(N3CCCCC3)CC2)c(C(=O)O)c1)c1ccccc1` belongs 0.282 µM [rising, full curve, poor fit]. Turning to `CC1CCN(C(=O)c2cnn(-c3ccc(Cl)cc3)c2C2CCN(C(=O)OC(C)(C)C)CC2)CC1`, the half-maximal activity concentration (AC50) under setting [2] was 0.282 µM [falling, full curve, poor fit]. Turning to `Cc1nnsc1C(=O)N/N=C/c1ccccc1`, the AC50 under setting [1] is 1.41 µM [falling, full curve, poor fit].

`CCOC(=O)c1[nH]cnc1C(=O)Nc1ccccc1C`: the half-maximal activity concentration (AC50) reads like this: under setting [1], 0.501 µM [rising, full curve, poor fit]; under setting [2], 2.82 µM [rising, full curve, poor fit]. As for `O=C(CC(SCCO)c1ccc2c(c1)OCO2)c1cccs1` (configuration not stated), under setting [2], the half-maximal activity concentration (AC50) is 17.8 µM [rising, single point].
